Experimental data published in the RNAGym collection of RNA variant scans (doi:10.1126/science.aae0568).
This sample is rich in variants without activity.

B1: tRNA (parent)
chain: GUUCCGUUGGCGUAAUGGUAACGCGUCUCCCUCCUAAGGAGAAGACUGCGGGUUCGAGUCCCGUACGGAACG

Variants of: B1
Assay: yeast fitness relative to wild type (ratio to wild type); higher = fitter; tRNA-Arg(CCU), competitive growth, 37 C, YPD
Summary of the method: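 Gene amplicons from the start population and from each of six end populations were read by 100-nucleotide paired-end sequencing. Those end populations came from pooled Saccharomyces cerevisiae strains carrying tRNA-Arg(CCU) gene variants at the native locus, competed in YPD at 37°C for 24 hours. Fitness relative to wild type was worked out from changes in genotype frequencies. Genotypes needed ≥ 100 starting reads, and estimates < 0.5 were set to 0.5.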

Variant	yeast fitness
U16A A37C G48C	0.546
U16A A37G A43G A65U	≤ 0.5
U16A A42C A69U	0.505
U16A C24G C49G U53C	≤ 0.5
U16A C24U C29A	0.57
U16A C24U C30G U35A U54A C62G C66U A70G	≤ 0.5
U16A C27U A37C A40U A43U C66U	≤ 0.5
U16A C34U	0.663
U16A C61G G63C	≤ 0.5
U16A C62U	0.918
U16A G56C A57U C60U	≤ 0.5
U16A G67U	0.85
U16A U19C	1.03
U16A U59A C66U	≤ 0.5
U16C A21C A37G A69G A70G	≤ 0.5
U16C A40G A65U	≤ 0.5
U16C A45C G56A C62U	≤ 0.5
U16C C22G C30U C46A U54A A57G	≤ 0.5
U16C C24G C30G A36U	≤ 0.5
U16C C24U A57U C61U	≤ 0.5
U16C C24U C33U C66U	≤ 0.5
U16C C27A A36G A70U	≤ 0.5
U16C C27G A40G G48A A57C	≤ 0.5
U16C C27U C29A A40G A43C	≤ 0.5

Variant	yeast fitness
U16C C46G U54A A57C U64G	≤ 0.5
U16G A20G A69C	0.749
U16G C27A G39A	≤ 0.5
U16G C29U C31A C46U	0.716
U16G C30A C46G U54C	≤ 0.5
U16G C66A	≤ 0.5
G17A A21C C30A A40G A45G	≤ 0.5
G17A A37C G58A	0.551
G17A A43G A45G A70C	≤ 0.5
G17A C22A G25A G51A A69U A70G	≤ 0.5
G17A C22G C27A A43G	≤ 0.5
G17A C24G C27G C62U G67A	≤ 0.5
G17A C27G C55U G68U	≤ 0.5
G17A C31G U35C G68A	≤ 0.5
G17A C33G C66U	≤ 0.5
G17A C34U C62U A70C	≤ 0.5
G17A U19A A21C G44C C61A G67A	≤ 0.5
G17C A20C C60U C61U	≤ 0.5
G17C A40U G63U C66G	≤ 0.5
G17C A42G A70G	≤ 0.5
G17C A57C	≤ 0.5
G17C C34G A42C C46U C61G	≤ 0.5
G17C C34U C62U A70U	≤ 0.5
G17C G23C	0.517

Variant	yeast fitness
G17C U19A G50A	≤ 0.5
G17C U28A C30A C31A A57G	≤ 0.5
G17C U28C C29G A42C G51A	≤ 0.5
G18A A21C C30U A45G	≤ 0.5
G18A A21C G23U U32A A42U G48C U64A	0.529
G18A A37G	0.547
G18A C29U C61U G68C	≤ 0.5
G18A C29U U35A A70U	≤ 0.5
G18A C46U G63C	≤ 0.5
G18A C49U	0.892
G18A G23C C30G A36U A65U A69C	≤ 0.5
G18A G39A A40C G52A G58A A65G	≤ 0.5
G18A G50A G68C	≤ 0.5
G18A U19A G23C U35C	≤ 0.5
G18A U26G G48C	≤ 0.5
G18C A42U G48C G68C A69U	≤ 0.5
G18C C22U A57G	≤ 0.5
G18C C24A A36U	≤ 0.5
G18C C27G C49U	≤ 0.5
G18C C29G A36C G44C G50A C66A	≤ 0.5
G18C C29G C34U G56U G67A A70C	≤ 0.5
G18C C55U A70G	≤ 0.5
G18C C62G C66A	≤ 0.5
G18C G23A C61U	≤ 0.5

Variant	yeast fitness
G18C G25U C31G C55G A57C	≤ 0.5
G18C U28G A45C C66A	≤ 0.5
U19A A36G C55A G56C	≤ 0.5
U19A C22U G50U	≤ 0.5
U19A C22U G67U	≤ 0.5
U19A C24A G48C U54G C55U C66U	≤ 0.5
U19A G25A A37U C49A C66U	≤ 0.5
U19A U53A	0.553
U19C A20U C27G G52C	≤ 0.5
U19C A20U C46A A69U	≤ 0.5
U19C A36C G41A G51C G68A	≤ 0.5
U19C A37G C62G	≤ 0.5
U19C A43G G44C A45C A65C	≤ 0.5
U19C A43G G44C A45C C66U	0.589
U19C C22G C61U A65U	≤ 0.5
U19C C31U C33G G41A C49G U54C U59C G63A	≤ 0.5
U19C C61U	0.925
U19C G25A G44C U47A	≤ 0.5
U19C U47A C49U A57C	≤ 0.5
U19G A37G A65U A69U	≤ 0.5
U19G A40G G51C G68U	≤ 0.5
U19G A65C G67A	≤ 0.5
U19G C22G C34U C49U	≤ 0.5
U19G G58C G67C	0.61

Variant	yeast fitness
A20C A37C A43G C55U	≤ 0.5
A20C A42C A57U	≤ 0.5
A20C C27A G52C U54C	≤ 0.5
A20C C30U A42G	≤ 0.5
A20C C55U	0.612
A20C G23C C27A C62A A69U	≤ 0.5
A20C G38A G41A G52A	≤ 0.5
A20C G38C A43U A45G	≤ 0.5
A20C G41C U59G G63C	≤ 0.5
A20C G44C G48A A69U	≤ 0.5
A20C G50A A57U A70U	≤ 0.5
A20C G52A A65G	≤ 0.5
A20C G52C U54A C61U	≤ 0.5
A20C U35A A36G G44C	≤ 0.5
A20G A21U A42C	0.547
A20G A36G	1.01
A20G A37U C61A	≤ 0.5
A20G A43G G52C U53C G63C	≤ 0.5
A20G C22A C29G	≤ 0.5
A20G C22U C24U G56A C66G	≤ 0.5
A20G C24A G52C	≤ 0.5
A20G C24G C29U G51C	≤ 0.5
A20G C24G C30G	≤ 0.5
A20G C24U	0.9

Variant	yeast fitness
A20G C29G A65U	≤ 0.5
A20G C31G C60G G63C	≤ 0.5
A20G C46U G63A	0.82
A20G C49A G56C G68C	≤ 0.5
A20G C62U	1.05
A20G G23C U54A A57C	≤ 0.5
A20G G48C C49G C55U A57C A65G A70C	≤ 0.5
A20G U28A C62G	≤ 0.5
A20G U28G C29U C49U U54A C55U A70C	≤ 0.5
A20G U32G A43C C55G C60U	≤ 0.5
A20U A21C C27A	≤ 0.5
A20U A40U C55U A65C A70G	≤ 0.5
A20U A42C C62A	≤ 0.5
A20U A45G C55U G67A	≤ 0.5
A20U A70G	0.918
A20U C22G C49U C62U	≤ 0.5
A20U C24G C31A A65C	≤ 0.5
A20U C27G C29A G58A	≤ 0.5
A20U C29U C49G C55A C66U	≤ 0.5
A20U C30G	0.61
A20U C31G A45U C46G G58A	≤ 0.5
A20U C31U G56A A69C	≤ 0.5
A20U C34A C66A	≤ 0.5
A20U G38C A65G	≤ 0.5

Variant	yeast fitness
A20U G48A G50A A57U	≤ 0.5
A20U G56C A65C	≤ 0.5
A20U G67C G68C	≤ 0.5
A20U U32A C33U	≤ 0.5
A20U U47C G50A A57U	≤ 0.5
A20U U54G A65U G67A	≤ 0.5
A21C A36C G56A	0.562
A21C C22G G67A A69U	≤ 0.5
A21C C24G C29U A42C U59G G67U	≤ 0.5
A21C C30G G52C G67U A69U	≤ 0.5
A21C C30U U32G U53C G68C A70G	≤ 0.5
A21C C46U	0.909
A21C C46U A65U	0.556
A21C C49U C55A	≤ 0.5
A21C G23C G51A G52C A65C	≤ 0.5
A21C G48C G67C	≤ 0.5
A21C U26A C27G G44C C49A U64C	≤ 0.5
A21C U35C A37U	≤ 0.5
A21G A36G G38C G52A	≤ 0.5
A21G A37U A40U U64C G67A	≤ 0.5
A21G A40G A42U A43G A65G	≤ 0.5
A21G A43C	0.966
A21G A43G U53A A57U A65U	≤ 0.5
